# Source: publication PMC9355963
# Chains of the proteins cited; added tags and fusions are not shown. Lines headed by an entry give the natural chain unless they say otherwise; changes in a name come on top.
# UniProt Q9NZQ7: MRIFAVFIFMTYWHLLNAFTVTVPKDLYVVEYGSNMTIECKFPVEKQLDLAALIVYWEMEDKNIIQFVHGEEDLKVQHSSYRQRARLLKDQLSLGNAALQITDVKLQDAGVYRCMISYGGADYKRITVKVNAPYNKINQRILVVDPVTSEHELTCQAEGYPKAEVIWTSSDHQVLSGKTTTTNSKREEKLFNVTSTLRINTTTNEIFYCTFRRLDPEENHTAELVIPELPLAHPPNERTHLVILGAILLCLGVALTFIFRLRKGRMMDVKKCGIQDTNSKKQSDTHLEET
# Results are given in words; binding and its absence hold for the method and conditions named. Some entries that bind do so weakly or less than the wild type. Where a sequence is shown, tags or fusion partners need not be part of it.
# Target: T1, PD-L2, full-length untagged receptor on cells (UniProt Q9BQ51)
# T1 sequence: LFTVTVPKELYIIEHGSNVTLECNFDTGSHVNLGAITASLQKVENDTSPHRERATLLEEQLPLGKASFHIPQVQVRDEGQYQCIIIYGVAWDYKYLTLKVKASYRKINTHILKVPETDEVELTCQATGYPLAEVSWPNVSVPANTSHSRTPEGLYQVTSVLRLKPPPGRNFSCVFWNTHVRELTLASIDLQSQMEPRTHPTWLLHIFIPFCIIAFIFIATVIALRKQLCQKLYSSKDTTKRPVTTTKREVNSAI
# Test: fluorescent streptavidin tetramer binding to transfected cells, imaging; only the binder purified
substance,measurement,value
"PD-L1 ectodomain, Avi-tagged, biotinylated (from UniProt Q9NZQ7 19-238) (domain or fragment)",binding,binds
